Source: paper doi:10.1101/2021.11.11.468204

Chains of the proteins cited; added tags and fusions are not shown. Residues count along the entry.
UniProt O95202, residues 116-739: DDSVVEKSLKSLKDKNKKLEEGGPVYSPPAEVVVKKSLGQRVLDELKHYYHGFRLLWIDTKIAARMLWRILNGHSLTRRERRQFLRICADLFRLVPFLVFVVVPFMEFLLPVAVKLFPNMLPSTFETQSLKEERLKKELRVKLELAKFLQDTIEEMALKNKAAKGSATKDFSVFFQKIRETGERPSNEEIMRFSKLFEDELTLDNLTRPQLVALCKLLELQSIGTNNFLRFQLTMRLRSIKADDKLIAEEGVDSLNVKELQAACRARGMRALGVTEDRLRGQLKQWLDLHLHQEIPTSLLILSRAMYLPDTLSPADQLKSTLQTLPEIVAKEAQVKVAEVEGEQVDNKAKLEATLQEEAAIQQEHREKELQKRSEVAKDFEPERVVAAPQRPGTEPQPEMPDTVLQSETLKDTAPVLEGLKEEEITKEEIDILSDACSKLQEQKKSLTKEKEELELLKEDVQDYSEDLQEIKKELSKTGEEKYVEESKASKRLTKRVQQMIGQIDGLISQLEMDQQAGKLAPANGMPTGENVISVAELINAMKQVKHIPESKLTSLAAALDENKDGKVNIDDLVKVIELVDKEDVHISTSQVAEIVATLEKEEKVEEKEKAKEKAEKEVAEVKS
UniProt Q9UHD2: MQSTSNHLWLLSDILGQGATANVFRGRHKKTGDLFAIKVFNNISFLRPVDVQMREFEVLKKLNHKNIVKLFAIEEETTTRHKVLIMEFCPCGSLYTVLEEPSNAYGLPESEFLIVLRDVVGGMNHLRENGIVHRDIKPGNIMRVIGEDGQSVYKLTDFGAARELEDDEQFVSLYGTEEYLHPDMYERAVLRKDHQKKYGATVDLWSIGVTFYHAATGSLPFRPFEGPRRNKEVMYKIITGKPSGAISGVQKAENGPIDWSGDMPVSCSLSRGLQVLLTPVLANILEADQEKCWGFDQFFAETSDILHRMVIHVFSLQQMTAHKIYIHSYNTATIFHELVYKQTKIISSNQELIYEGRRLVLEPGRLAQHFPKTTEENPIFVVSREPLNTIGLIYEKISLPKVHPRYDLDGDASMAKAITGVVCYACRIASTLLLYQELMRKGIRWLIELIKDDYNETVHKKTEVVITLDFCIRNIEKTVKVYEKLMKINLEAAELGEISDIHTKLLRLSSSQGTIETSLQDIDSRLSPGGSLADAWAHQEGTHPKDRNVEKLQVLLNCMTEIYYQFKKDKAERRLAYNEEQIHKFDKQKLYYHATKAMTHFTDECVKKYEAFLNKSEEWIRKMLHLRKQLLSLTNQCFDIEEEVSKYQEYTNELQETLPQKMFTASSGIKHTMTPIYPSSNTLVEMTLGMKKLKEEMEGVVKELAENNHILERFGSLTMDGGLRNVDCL

Columns and labels:
Assay in all cases: affinity purification with mass spectrometry
[1] = target: LETM1-StrepHA (UniProt O95202)
[2] = target: LETM1-StrepHA (UniProt O95202); remark: listed apart in the source
[3] = target: LETM1-StrepHA (UniProt O95202); remark: listed apart in the source

| binding [1] | binding [2] | binding [3] | Molecule |
| --- | --- | --- | --- |
| binds | binds |  | TBK1 (from UniProt Q9UHD2 1-729) |
|  |  | binds | mitochondrial Morphology and Cristae Structure 1 (MICS1) (protein, UniProt Q9H3K2 46-345) ATKTRIGIRRGRTGQELKEAALEPSMEKIFKIDQMGRWFVAGGAAVGLGALCYYGLGLSNEIGAIEKAVIWPQYVKDRIHSTYMYLAGSIGLTALSAIAISRTPVLMNFMMRGSWVTIGVTFAAMVGAGMLVRSIPYDQSPGPKHLAWLLHSGVMGAVVAPLTILGGPLLIRAAWYTAGIVGGLSTVAMCAPSEKFLNMGAPLGVGLGLVFVSSLGSMFLPPTTVAGATLYSVAMYGGLVLFSMFLLYDTQKVIKRAEVSPMYGVQKYDPINSMLSIYMDTLNIFMRVATMLATGGNRKK |

Read-outs that look alike come from different tables or passages of the source. No constants are given. Whether binding was seen depends on the method and setting. Binding seen in cells or lysates may run through a third protein. Here binding means that the protein was enriched with, or labelled near, the bait; the list need not be complete.
